Results taken from PubChem BioAssay AID330 (DTP/NCI, 2004).
The list does not hold the whole screen: it gathers tests that were run many times, whatever their T/C, doses with no T/C, and many T/C values between a quarter and a half above the control. Further doses and runs are listed elsewhere. T/C: endpoint of the treated group in % of that of the vehicle group. Some doses have a count of surviving animals in place of a T/C: the source holds a T/C of zero for them, seemingly a mark for toxic or unscored doses. Some survivor counts are full or nearly so, which does not show that the dose was tolerated: survival well below the control is almost never listed, so the zero probably covers shortened survival too. Counts of survivors are from the toxicity check (mostly the fifth day) where no day follows; animals may have died later. Schedule codes are those of the source, read here as Q, the interval in days (D) or hours (H), X, the number of doses. Some entries were tested several times; the values are given in rising order. For survival time, the PubChem record calls one and a half times the control and up active, and a quarter to a half above the control has no call in these data; cut-offs in other NCI protocols can differ.

System: P388 leukemia ip, CD2F1 mice, survival T/C
Assay: NCI In Vivo Anticancer Drug Screen. Data for tumor model P388 Leukemia (intraperitoneal) in CD2F1 (CDF1) mice
Settings: T/C endpoint: median survival time, higher T/C = longer survival
[1] = dose: 50.0 mg/kg/injection, schedule: Q01DX005 (ip), vehicle: Klucel (hydroxypropylcellulose) (HPC)
[2] = dose: 200.0 mg/kg/injection, schedule: Q01DX005 (ip), vehicle: Klucel (hydroxypropylcellulose) (HPC)
[3] = dose: 200.0 mg/kg/injection, schedule: Q01DX009 (ip), vehicle: Klucel (hydroxypropylcellulose) (HPC)
[4] = dose: 240.0 mg/kg/injection, schedule: Q01DX005 (ip), vehicle: Klucel (hydroxypropylcellulose) (HPC)
[5] = dose: 100.0 mg/kg/injection, schedule: Q04DX002 (ip), vehicle: Klucel (hydroxypropylcellulose) (HPC)
[6] = dose: 400.0 mg/kg/injection, schedule: Q04DX002 (ip), vehicle: Klucel (hydroxypropylcellulose) (HPC)
[7] = dose: 200.0 mg/kg/injection, schedule: Q01DX009 (ip), vehicle: saline with Tween-80
[8] = dose: 100.0 mg/kg/injection, schedule: Q01DX005 (ip), vehicle: saline
[9] = dose: 200.0 mg/kg/injection, schedule: Q01DX005 (ip), vehicle: saline

S=C1NCCNC(=S)SS1
survivor count [1]: 3 of 5
survivor count [2]: 1 of 5

COc1cc(OC)c(NC(=S)Nc2cc(C)ccc2OC)cc1Cl
survivor count (dose: 200.0 mg/kg/injection, schedule: Q01DX009 (ip), vehicle: DMSO): 6 of 6

Brc1ccc(C2=NOP(c3ccccc3)(c3ccccc3)(c3ccccc3)C2)cc1
survivor count [3]: 6 of 6

CCCCCCCCCCS(=O)CC(CO)NC(=O)/C=C/c1c(C)[nH]c(=O)[nH]c1=O (stereo not given)
T/C (dose: 1.56 mg/kg/injection, schedule: Q01DX009 (ip), vehicle: other): 131 % of control
T/C (dose: 3.13 mg/kg/injection, schedule: Q01DX009 (ip), vehicle: other): 129 and 134 % of control
T/C (dose: 6.25 mg/kg/injection, schedule: Q01DX009 (ip), vehicle: other): 140 % of control
survivor count (dose: 12.5 mg/kg/injection, schedule: Q01DX009 (ip), vehicle: other): 1 of 6, 2 of 6, 3 of 6
survivor count (dose: 25.0 mg/kg/injection, schedule: Q01DX009 (ip), vehicle: other): 0 of 6 and 1 of 6
survivor count (dose: 50.0 mg/kg/injection, schedule: Q01DX009 (ip), vehicle: other): 0 of 6
survivor count (dose: 100.0 mg/kg/injection, schedule: Q01DX009 (ip), vehicle: other): 0 of 6
survivor count (dose: 200.0 mg/kg/injection, schedule: Q01DX009 (ip), vehicle: other): 0 of 6

CC(=O)Nc1nc(C)c(CCCOc2ccc([N+](=O)[O-])cc2)c(=O)[nH]1
survivor count [4]: 6 of 6

CN(C)c1cc(N(C)C)c2ccccc2n1
survivor count (dose: 50.0 mg/kg/injection, schedule: Q01DX009 (ip), vehicle: Klucel (hydroxypropylcellulose) (HPC)): 0 of 6 and 2 of 6
survivor count [3]: 0 of 6

Cc1nc(C)c2c(C)[nH]c(-c3ccccc3)c2n1
survivor count [5]: 0 of 6
survivor count [6]: 6 of 6

C(=N\N1CCCCCC1)/c1ccc2c(c1)OCO2
survivor count [7]: 5 of 6

C/C(CCl)=N\NC1=NC2(CCCCC2)P(=O)(NNc2ncccn2)S1 (stereo not given)
survivor count (dose: 150.0 mg/kg/injection, schedule: Q01DX005 (ip), vehicle: Klucel (hydroxypropylcellulose) (HPC)): 0 of 6
survivor count [4]: 0 of 6

CC(C)CCN=Cc1ccccc1O.CC(C)CCN=Cc1ccccc1O.[Zn]
survivor count [3]: 2 of 6

Brc1cccc[n+]1Cc1cc2ccccc2c2ccccc12
survivor count [5]: 5 of 5
survivor count (dose: 200.0 mg/kg/injection, schedule: Q04DX002 (ip), vehicle: Klucel (hydroxypropylcellulose) (HPC)): 5 of 5
survivor count [6]: 0 of 5

CO[C@H]1/C=C/O[C@@]2(C)Oc3c(C)c(O)c4c(O)c(c(/C=N/N5C(C)CN(Cc6ccc(C#N)cc6)CC5C)c(O)c4c3C2=O)NC(=O)/C(C)=C\C=C\[C@H](C)[C@H](O)[C@@H](C)[C@@H](O)[C@@H](C)[C@H](OC(C)=O)[C@@H]1C (stereo not given in full)
survivor count [7]: 4 of 6
survivor count (dose: 400.0 mg/kg/injection, schedule: Q01DX009 (ip), vehicle: Klucel (hydroxypropylcellulose) (HPC)): 0 of 6

Cc1ccc(S(=O)(=O)OC(=C(F)F)[Si](C)(C)C)cc1
survivor count [7]: 6 of 6

CN1C2C=C(c3ccccc3)CC1CC2 (stereo not given)
survivor count (dose: 6.0 mg/kg/injection, schedule: Q01DX005 (ip), vehicle: saline): 0 of 6
survivor count (dose: 6.25 mg/kg/injection, schedule: Q01DX005 (ip), vehicle: Klucel (hydroxypropylcellulose) (HPC)): 0 of 6
survivor count (dose: 12.0 mg/kg/injection, schedule: Q01DX005 (ip), vehicle: saline): 0 of 6
survivor count (dose: 12.5 mg/kg/injection, schedule: Q01DX005 (ip), vehicle: Klucel (hydroxypropylcellulose) (HPC)): 0 of 6
survivor count (dose: 25.0 mg/kg/injection, schedule: Q01DX005 (ip), vehicle: Klucel (hydroxypropylcellulose) (HPC)): 0 of 6
survivor count (dose: 25.0 mg/kg/injection, schedule: Q01DX005 (ip), vehicle: saline): 0 of 6
survivor count [1]: 0 of 6
survivor count (dose: 50.0 mg/kg/injection, schedule: Q01DX005 (ip), vehicle: saline): 0 of 6
survivor count (dose: 100.0 mg/kg/injection, schedule: Q01DX005 (ip), vehicle: Klucel (hydroxypropylcellulose) (HPC)): 0 of 6
survivor count [8]: 0 of 6
survivor count [2]: 0 of 6
survivor count [9]: 0 of 6

CC(C)N1COC(c2ccccc2)C1 (stereo not given)
survivor count [8]: 0 of 6 and 2 of 6
survivor count [9]: 1 of 6

COC(=O)C1=C(C)NC(C)=C(C(=O)OCCCN2CCC(c3ccccc3)(c3ccccc3)CC2)C1c1cccc([N+](=O)[O-])c1 (stereo not given)
survivor count (dose: 60.0 mg/kg/injection, schedule: Q01DX005 (ip), vehicle: saline with Tween-80): 0 of 6
survivor count (dose: 120.0 mg/kg/injection, schedule: Q01DX005 (ip), vehicle: saline with Tween-80): 0 of 6
survivor count (dose: 240.0 mg/kg/injection, schedule: Q01DX005 (ip), vehicle: saline with Tween-80): 0 of 6

NCC(O)c1cccc(C(F)(F)F)c1 (stereo not given)
survivor count (dose: 200.0 mg/kg/injection, schedule: Q01DX009 (ip), vehicle: saline): 3 of 6
